For 3 molecules, binding results are on record in PMC6504903.

Assay [1] concerns the target T1, mCherry-Mps2-GFP11 (budding yeast) (UniProt P53159).
T1 sequence: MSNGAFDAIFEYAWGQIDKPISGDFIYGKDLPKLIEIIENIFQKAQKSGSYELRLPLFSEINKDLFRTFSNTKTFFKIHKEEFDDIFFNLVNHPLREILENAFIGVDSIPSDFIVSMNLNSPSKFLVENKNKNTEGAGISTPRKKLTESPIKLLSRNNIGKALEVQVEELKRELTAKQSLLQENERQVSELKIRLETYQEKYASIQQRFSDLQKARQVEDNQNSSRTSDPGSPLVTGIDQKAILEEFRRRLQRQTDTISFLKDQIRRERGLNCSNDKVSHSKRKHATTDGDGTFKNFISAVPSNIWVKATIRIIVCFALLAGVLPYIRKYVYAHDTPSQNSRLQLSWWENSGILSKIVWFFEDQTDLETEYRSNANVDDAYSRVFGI
As to the kind of experiment: split reporter; split-GFP (GFP1-10 and GFP11) in fixed yeast cells read by SIM at the SPB; the Mps2-Mps3 pairs also by three-colour imaging with Spc110-mT2.

The target of the next assay is T2, Bbp1-mT2 (budding yeast) (UniProt Q12365).
T2 sequence: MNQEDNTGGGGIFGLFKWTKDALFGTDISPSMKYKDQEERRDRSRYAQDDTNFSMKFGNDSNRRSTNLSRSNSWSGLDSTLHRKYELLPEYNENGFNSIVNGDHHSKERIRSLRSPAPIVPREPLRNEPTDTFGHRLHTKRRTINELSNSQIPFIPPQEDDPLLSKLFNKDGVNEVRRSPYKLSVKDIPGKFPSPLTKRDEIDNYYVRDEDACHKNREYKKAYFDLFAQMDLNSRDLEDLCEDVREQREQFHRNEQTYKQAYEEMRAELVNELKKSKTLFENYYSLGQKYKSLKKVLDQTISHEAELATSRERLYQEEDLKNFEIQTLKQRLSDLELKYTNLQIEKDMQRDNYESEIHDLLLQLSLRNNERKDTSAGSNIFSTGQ
As to the kind of experiment: FRET or BRET; acceptor photobleaching FRET at the SPB in fixed, asynchronously growing yeast cells; mT2 donor, YFP acceptor, bleached at 514 nm for 1 min; relative FRET efficiency against the donor-only control. For orientation: Bioluminescence resonance energy transfer reports proximity on the nanometre scale.

Assay [2] deals with T3, Ndc1-mT2 (budding yeast), P32500.
T3 chain: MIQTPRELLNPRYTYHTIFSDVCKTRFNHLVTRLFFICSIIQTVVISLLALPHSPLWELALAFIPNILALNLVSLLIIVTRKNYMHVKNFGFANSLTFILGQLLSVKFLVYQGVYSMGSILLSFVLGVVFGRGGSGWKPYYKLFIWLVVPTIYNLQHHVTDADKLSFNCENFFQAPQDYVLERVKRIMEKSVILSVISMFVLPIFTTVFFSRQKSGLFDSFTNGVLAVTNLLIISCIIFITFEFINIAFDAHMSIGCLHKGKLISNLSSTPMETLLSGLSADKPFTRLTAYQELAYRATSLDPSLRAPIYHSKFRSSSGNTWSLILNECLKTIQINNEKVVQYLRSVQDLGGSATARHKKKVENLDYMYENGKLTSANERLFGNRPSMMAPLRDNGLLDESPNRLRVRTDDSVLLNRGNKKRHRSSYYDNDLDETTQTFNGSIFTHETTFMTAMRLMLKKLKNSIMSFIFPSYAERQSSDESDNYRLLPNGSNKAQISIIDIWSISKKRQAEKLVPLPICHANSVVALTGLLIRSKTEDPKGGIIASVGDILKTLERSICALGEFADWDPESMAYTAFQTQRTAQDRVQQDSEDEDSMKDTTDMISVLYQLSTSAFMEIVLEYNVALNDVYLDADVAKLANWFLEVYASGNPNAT
The description is as above. To be noted: remark: other sources report otherwise.

These are yes or no findings as the source states them, for the method shown. In cells and extracts the contact can be indirect. Some binding calls cover weakened binding; strength is not graded here. Sequences can lack the tags named with a protein.

B1: Mps3-GFP_(1–10) (protein, UniProt P47069 1-682)
chain: MNNSNEHRREEAGAANEQMPYNKAVKSAYADVLKDKMNREQEISLRAIKKGIYTDGGETDNYDMDKENDSAYEMFKKNLDFPLDQHNDDDDDDPYIEDNGQETDGYSDEDYTDEADKSFIEDSDSDSYDLESNSDFEENLESSGEAKKLKWRTYIFYGGLFFVFYFFGSFLMTTVKNNDLESHSSGATSSPGKSFSNLQKQVNHLYSELSKRDEKHSSELDKTVKIIVSQFEKNIKRLLPSNLVNFENDINSLTKQVETISTSMSELQRRNHKFTVENVTQWQDQLVKQLDTHLPQEIPVVINNSSSLLIIPELHNYLSALISDVIESPGIGTAGSAESRWEYDLNRYVKEILSNELQYIDKDYFIQEMNRRLQSNKQEIWEEITNRLETQQQQQQQQVQQDYSNVPQQYSSILMKRLIHQIYNSNQHQWEDDLDFATYVQGTKLLNHLTSPTWRQGSGVQPIELLTDSKQSSSTYWQCENEPGCSWAIRFKTPLYLTKISYMHGRFTNNLHIMNSAPRLISLYVKLSQTKEIKALQTLANQYGFGQHHKRDRNYIKIAKFEYRLTDSRIRQQMYLPPWFIQLKPLVRSIVFQVDENYGNKKFISLRKFIINGVTPQDLQIIENNEFPVLLGDTPEYGVTQNTDEGKRKVLLSKPPYASSSTSTKFHPASNVPSFGQDELDQ
With B1, in assay [1], the binding entry was “binds”.

B2: YFP-Mps3 (protein, UniProt P47069 1-682)
chain: MNNSNEHRREEAGAANEQMPYNKAVKSAYADVLKDKMNREQEISLRAIKKGIYTDGGETDNYDMDKENDSAYEMFKKNLDFPLDQHNDDDDDDPYIEDNGQETDGYSDEDYTDEADKSFIEDSDSDSYDLESNSDFEENLESSGEAKKLKWRTYIFYGGLFFVFYFFGSFLMTTVKNNDLESHSSGATSSPGKSFSNLQKQVNHLYSELSKRDEKHSSELDKTVKIIVSQFEKNIKRLLPSNLVNFENDINSLTKQVETISTSMSELQRRNHKFTVENVTQWQDQLVKQLDTHLPQEIPVVINNSSSLLIIPELHNYLSALISDVIESPGIGTAGSAESRWEYDLNRYVKEILSNELQYIDKDYFIQEMNRRLQSNKQEIWEEITNRLETQQQQQQQQVQQDYSNVPQQYSSILMKRLIHQIYNSNQHQWEDDLDFATYVQGTKLLNHLTSPTWRQGSGVQPIELLTDSKQSSSTYWQCENEPGCSWAIRFKTPLYLTKISYMHGRFTNNLHIMNSAPRLISLYVKLSQTKEIKALQTLANQYGFGQHHKRDRNYIKIAKFEYRLTDSRIRQQMYLPPWFIQLKPLVRSIVFQVDENYGNKKFISLRKFIINGVTPQDLQIIENNEFPVLLGDTPEYGVTQNTDEGKRKVLLSKPPYASSSTSTKFHPASNVPSFGQDELDQ
As for B2, the binding result with Bbp1-mT2 (budding yeast) is recorded as “no binding”.

B3: YFP-Mps3, P47069 1-682 (protein)
chain: MNNSNEHRREEAGAANEQMPYNKAVKSAYADVLKDKMNREQEISLRAIKKGIYTDGGETDNYDMDKENDSAYEMFKKNLDFPLDQHNDDDDDDPYIEDNGQETDGYSDEDYTDEADKSFIEDSDSDSYDLESNSDFEENLESSGEAKKLKWRTYIFYGGLFFVFYFFGSFLMTTVKNNDLESHSSGATSSPGKSFSNLQKQVNHLYSELSKRDEKHSSELDKTVKIIVSQFEKNIKRLLPSNLVNFENDINSLTKQVETISTSMSELQRRNHKFTVENVTQWQDQLVKQLDTHLPQEIPVVINNSSSLLIIPELHNYLSALISDVIESPGIGTAGSAESRWEYDLNRYVKEILSNELQYIDKDYFIQEMNRRLQSNKQEIWEEITNRLETQQQQQQQQVQQDYSNVPQQYSSILMKRLIHQIYNSNQHQWEDDLDFATYVQGTKLLNHLTSPTWRQGSGVQPIELLTDSKQSSSTYWQCENEPGCSWAIRFKTPLYLTKISYMHGRFTNNLHIMNSAPRLISLYVKLSQTKEIKALQTLANQYGFGQHHKRDRNYIKIAKFEYRLTDSRIRQQMYLPPWFIQLKPLVRSIVFQVDENYGNKKFISLRKFIINGVTPQDLQIIENNEFPVLLGDTPEYGVTQNTDEGKRKVLLSKPPYASSSTSTKFHPASNVPSFGQDELDQ
For B3, in assay [2], the binding entry is on record as “no binding”.
